Data reported in patent publication US10568828B2 (CAREGEN CO., LTD., priority 2016, dated 2020).

Experiment: general procedure: peptide synthesis; chlorotrityl chloride resin (CTL resin, Nova Biochem Cat No. 01-64-0021)
Settings: whole synthesis

For Arg-Arg-Lys-Ile (RRKI), the crude mass was 0.7 g and the crude yield (scale of the general procedure 700 mg resin) was 90.0%.
